# Source: article PMC7338359
# The chains behind the UniProt entries cited, without tags or fusion partners.
# UniProt Q13547: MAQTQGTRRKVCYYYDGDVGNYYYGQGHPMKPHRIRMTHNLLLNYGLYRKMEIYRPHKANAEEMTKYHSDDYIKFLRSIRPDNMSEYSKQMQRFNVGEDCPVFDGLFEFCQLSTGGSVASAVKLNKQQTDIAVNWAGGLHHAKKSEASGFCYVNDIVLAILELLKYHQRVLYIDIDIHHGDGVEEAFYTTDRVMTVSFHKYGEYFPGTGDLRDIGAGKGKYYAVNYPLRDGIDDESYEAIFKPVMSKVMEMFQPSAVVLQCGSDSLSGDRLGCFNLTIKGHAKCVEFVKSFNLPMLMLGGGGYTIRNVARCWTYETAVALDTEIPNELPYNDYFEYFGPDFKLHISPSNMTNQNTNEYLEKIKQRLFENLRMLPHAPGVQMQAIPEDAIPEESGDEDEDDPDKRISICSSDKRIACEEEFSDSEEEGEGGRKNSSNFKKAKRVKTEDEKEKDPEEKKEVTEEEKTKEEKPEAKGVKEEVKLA
# Biological target: T1, GFP-tagged PAICS (phosphoribosylaminoimidazole carboxylase, phosphoribosylaminoimidazole succinocarboxamide synthetase) (UniProt P22234)
# T1 sequence: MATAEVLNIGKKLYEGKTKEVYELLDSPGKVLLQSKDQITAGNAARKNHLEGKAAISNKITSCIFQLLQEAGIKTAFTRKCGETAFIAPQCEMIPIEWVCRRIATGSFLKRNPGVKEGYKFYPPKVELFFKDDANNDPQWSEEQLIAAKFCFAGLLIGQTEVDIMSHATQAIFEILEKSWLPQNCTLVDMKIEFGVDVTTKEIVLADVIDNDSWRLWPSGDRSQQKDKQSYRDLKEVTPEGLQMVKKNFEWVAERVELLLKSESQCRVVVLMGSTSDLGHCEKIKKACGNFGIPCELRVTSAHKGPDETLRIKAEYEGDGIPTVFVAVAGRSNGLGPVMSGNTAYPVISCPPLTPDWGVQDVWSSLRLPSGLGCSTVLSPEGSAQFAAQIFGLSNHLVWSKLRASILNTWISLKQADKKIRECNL
# Assay: affinity purification with mass spectrometry; HEK293T cells transfected with GFP-vector or GFP-PAICS, with or without CDDP (10 µg/mL for 12 h, 2-h recovery); lysates immunoprecipitated with anti-GFP, SDS-PAGE, coomassie stain, mass spectrometric analysis
substance,measurement,value
"histone deacetylase HDAC1, endogenous in HEK293T cells (from UniProt Q13547 1-482) (enzyme)",binding,binds

# Results are given in words; binding and its absence hold for the method and conditions named. Binding seen in cells or lysates may run through a third protein. These calls come from enrichment with a bait or labelling near it, and not all partners need be listed. Sequences can lack the tags named with a protein.
